Laboratory results as given in ChEMBL document CHEMBL1157379, “Transcriptional response of Candida parapsilosis following exposure to farnesol” (2007).
This continues a long series; more values of the same kind are listed elsewhere.

Legend:
Assay type in all cases: functional
Candida parapsilosis [1] = assay: Decrease in CGD gene ortholog accession number orf19.6211 expression in Candida parapsilosis CLIB214 at 50 uM after 2 hrs by microarray based transcriptional profiling relative to control
Candida parapsilosis [2] = assay: Increase in CGD gene ortholog accession number orf19.1754 expression in Candida parapsilosis CLIB214 at 50 uM after 2 hrs by microarray based transcriptional profiling relative to control
Candida parapsilosis [3] = assay: Increase in CGD gene ortholog accession number orf19.4739 expression in Candida parapsilosis CLIB214 at 50 uM after 2 hrs by microarray based transcriptional profiling relative to control
Candida parapsilosis [4] = assay: Increase in CGD gene ortholog accession number orf19.4750 expression in Candida parapsilosis CLIB214 at 50 uM after 2 hrs by microarray based transcriptional profiling relative to control
Candida parapsilosis [5] = assay: Increase in CGD gene ortholog accession number orf19.2608 expression in Candida parapsilosis CLIB214 at 50 uM after 2 hrs by microarray based transcriptional profiling relative to control
Candida parapsilosis [6] = assay: Decrease in PDC2 gene expression in Candida parapsilosis CLIB214 at 50 uM after 2 hrs by microarray based transcriptional profiling relative to control
Candida parapsilosis [7] = assay: Decrease in CGD gene ortholog accession number orf19.6323 expression in Candida parapsilosis CLIB214 at 50 uM after 2 hrs by microarray based transcriptional profiling relative to control
Candida parapsilosis [8] = assay: Decrease in FRE7 gene expression in Candida parapsilosis CLIB214 at 50 uM after 2 hrs by microarray based transcriptional profiling relative to control
Candida parapsilosis [9] = assay: Increase in CGD gene ortholog accession number orf19.25 expression in Candida parapsilosis CLIB214 at 50 uM after 2 hrs by microarray based transcriptional profiling relative to control
Candida parapsilosis [10] = assay: Increase in CGD gene ortholog accession number orf19.3481 expression in Candida parapsilosis CLIB214 at 50 uM after 2 hrs by microarray based transcriptional profiling relative to control
Candida parapsilosis [11] = assay: Increase in CGD gene ortholog accession number orf19.843 expression in Candida parapsilosis CLIB214 at 50 uM after 2 hrs by microarray based transcriptional profiling relative to control
Candida parapsilosis [12] = assay: Increase in CGD gene ortholog accession number orf19.2998 expression in Candida parapsilosis CLIB214 at 50 uM after 2 hrs by microarray based transcriptional profiling relative to control
Candida parapsilosis [13] = assay: Decrease in CGD gene ortholog accession number orf19.1850 expression in Candida parapsilosis CLIB214 at 50 uM after 2 hrs by microarray based transcriptional profiling relative to control
Candida parapsilosis [14] = assay: Increase in CGD gene ortholog accession number orf19.4544 expression in Candida parapsilosis CLIB214 at 50 uM after 2 hrs by microarray based transcriptional profiling relative to control
Candida parapsilosis [15] = assay: Increase in CGD gene ortholog accession number orf19.345 expression in Candida parapsilosis CLIB214 at 50 uM after 2 hrs by microarray based transcriptional profiling relative to control
Candida parapsilosis [16] = assay: Decrease in CGD gene ortholog accession number orf19.3231 expression in Candida parapsilosis CLIB214 at 50 uM after 2 hrs by microarray based transcriptional profiling relative to control
Candida parapsilosis [17] = assay: Increase in GenBank accession number NP_943634.1 expression in Candida parapsilosis CLIB214 at 50 uM after 2 hrs by microarray based transcriptional profiling relative to control
Candida parapsilosis [18] = assay: Decrease in CGD gene ortholog accession number orf19.6488 expression in Candida parapsilosis CLIB214 at 50 uM after 2 hrs by microarray based transcriptional profiling relative to control
Candida parapsilosis [19] = assay: Increase in CGD gene ortholog accession number orf19.7238 expression in Candida parapsilosis CLIB214 at 50 uM after 2 hrs by microarray based transcriptional profiling relative to control
Candida parapsilosis [20] = assay: Increase in CGD gene ortholog accession number orf19.2735 expression in Candida parapsilosis CLIB214 at 50 uM after 2 hrs by microarray based transcriptional profiling relative to control
Candida parapsilosis [21] = assay: Decrease in CGD gene ortholog accession number orf19.606 expression in Candida parapsilosis CLIB214 at 50 uM after 2 hrs by microarray based transcriptional profiling relative to control
Candida parapsilosis [22] = assay: Increase in GDH3 gene expression in Candida parapsilosis CLIB214 at 50 uM after 2 hrs by microarray based transcriptional profiling relative to control
Candida parapsilosis [23] = assay: Decrease in DES1 gene expression in Candida parapsilosis CLIB214 at 50 uM after 2 hrs by microarray based transcriptional profiling relative to control
Candida parapsilosis [24] = assay: Decrease in CGD gene ortholog accession number orf19.587 expression in Candida parapsilosis CLIB214 at 50 uM after 2 hrs by microarray based transcriptional profiling relative to control
Candida parapsilosis [25] = assay: Increase in CGD gene ortholog accession number orf19.3799 expression in Candida parapsilosis CLIB214 at 50 uM after 2 hrs by microarray based transcriptional profiling relative to control
Candida parapsilosis [26] = assay: Increase in GLN1 gene expression in Candida parapsilosis CLIB214 at 50 uM after 2 hrs by microarray based transcriptional profiling relative to control
Candida parapsilosis [27] = assay: Decrease in YHB1 gene expression in Candida parapsilosis CLIB214 at 50 uM after 2 hrs by microarray based transcriptional profiling relative to control
Candida parapsilosis [28] = assay: Decrease in CGD gene ortholog accession number orf19.5388 expression in Candida parapsilosis CLIB214 at 50 uM after 2 hrs by microarray based transcriptional profiling relative to control
Candida parapsilosis [29] = assay: Increase in CGD gene ortholog accession number orf19.6233 expression in Candida parapsilosis CLIB214 at 50 uM after 2 hrs by microarray based transcriptional profiling relative to control
Candida parapsilosis [30] = assay: Decrease in CGD gene ortholog accession number orf19.2400 expression in Candida parapsilosis CLIB214 at 50 uM after 2 hrs by microarray based transcriptional profiling relative to control
Candida parapsilosis [31] = assay: Increase in HSP90 gene expression in Candida parapsilosis CLIB214 at 50 uM after 2 hrs by microarray based transcriptional profiling relative to control
Candida parapsilosis [32] = assay: Increase in ACH1 gene expression in Candida parapsilosis CLIB214 at 50 uM after 2 hrs by microarray based transcriptional profiling relative to control
Candida parapsilosis [33] = assay: Decrease in TRL1 gene expression in Candida parapsilosis CLIB214 at 50 uM after 2 hrs by microarray based transcriptional profiling relative to control
Candida parapsilosis [34] = assay: Increase in CGD gene ortholog accession number orf19.1230 expression in Candida parapsilosis CLIB214 at 50 uM after 2 hrs by microarray based transcriptional profiling relative to control
Candida parapsilosis [35] = assay: Decrease in CGD gene ortholog accession number orf19.7604 expression in Candida parapsilosis CLIB214 at 50 uM after 2 hrs by microarray based transcriptional profiling relative to control
Candida parapsilosis [36] = assay: Decrease in CGD gene ortholog accession number orf19.6713 expression in Candida parapsilosis CLIB214 at 50 uM after 2 hrs by microarray based transcriptional profiling relative to control

CC(C)=CCC/C(C)=C/CC/C(C)=C/CO [FARNESOL]
fold change (FC) (Candida parapsilosis [1]): 1.69 | fold change (FC) (Candida parapsilosis [2]): 2.04 | fold change (FC) (Candida parapsilosis [3]): 1.73 | fold change (FC) (Candida parapsilosis [4]): 1.58 | fold change (FC) (Candida parapsilosis [5]): 2.15 | fold change (FC) (Candida parapsilosis [6]): 1.8 | fold change (FC) (Candida parapsilosis [7]): 1.54 | fold change (FC) (Candida parapsilosis [8]): 1.93 | fold change (FC) (Candida parapsilosis [9]): 1.59 | fold change (FC) (Candida parapsilosis [10]): 1.67 | fold change (FC) (Candida parapsilosis [11]): 1.74 | fold change (FC) (Candida parapsilosis [12]): 1.81 | fold change (FC) (Candida parapsilosis [13]): 1.62 | fold change (FC) (Candida parapsilosis [14]): 1.51 | fold change (FC) (Candida parapsilosis [15]): 1.71 | fold change (FC) (Candida parapsilosis [16]): 1.76 | fold change (FC) (Candida parapsilosis [17]): 3.03 | fold change (FC) (Candida parapsilosis [18]): 1.83 | fold change (FC) (Candida parapsilosis [19]): 2.41 | fold change (FC) (Candida parapsilosis [20]): 2.02 | fold change (FC) (Candida parapsilosis [21]): 1.62 | fold change (FC) (Candida parapsilosis [22]): 1.71 | fold change (FC) (Candida parapsilosis [23]): 2.22 | fold change (FC) (Candida parapsilosis [24]): 1.7 | fold change (FC) (Candida parapsilosis [25]): 1.55 | fold change (FC) (Candida parapsilosis [26]): 2.94 | fold change (FC) (Candida parapsilosis [27]): 1.83 | fold change (FC) (Candida parapsilosis [28]): 2.08 | fold change (FC) (Candida parapsilosis [29]): 1.61 | fold change (FC) (Candida parapsilosis [30]): 1.71 | fold change (FC) (Candida parapsilosis [31]): 3.05 | fold change (FC) (Candida parapsilosis [32]): 1.67 | fold change (FC) (Candida parapsilosis [33]): 1.66 | fold change (FC) (Candida parapsilosis [34]): 1.52 | fold change (FC) (Candida parapsilosis [35]): 2.03 | fold change (FC) (Candida parapsilosis [36]): 1.72
